3 molecules from article PMC3670911 can be followed below.

The chains behind the UniProt entries cited, without tags or fusion partners. Residues count along the entry.
UniProt P02751, residues 32-2477: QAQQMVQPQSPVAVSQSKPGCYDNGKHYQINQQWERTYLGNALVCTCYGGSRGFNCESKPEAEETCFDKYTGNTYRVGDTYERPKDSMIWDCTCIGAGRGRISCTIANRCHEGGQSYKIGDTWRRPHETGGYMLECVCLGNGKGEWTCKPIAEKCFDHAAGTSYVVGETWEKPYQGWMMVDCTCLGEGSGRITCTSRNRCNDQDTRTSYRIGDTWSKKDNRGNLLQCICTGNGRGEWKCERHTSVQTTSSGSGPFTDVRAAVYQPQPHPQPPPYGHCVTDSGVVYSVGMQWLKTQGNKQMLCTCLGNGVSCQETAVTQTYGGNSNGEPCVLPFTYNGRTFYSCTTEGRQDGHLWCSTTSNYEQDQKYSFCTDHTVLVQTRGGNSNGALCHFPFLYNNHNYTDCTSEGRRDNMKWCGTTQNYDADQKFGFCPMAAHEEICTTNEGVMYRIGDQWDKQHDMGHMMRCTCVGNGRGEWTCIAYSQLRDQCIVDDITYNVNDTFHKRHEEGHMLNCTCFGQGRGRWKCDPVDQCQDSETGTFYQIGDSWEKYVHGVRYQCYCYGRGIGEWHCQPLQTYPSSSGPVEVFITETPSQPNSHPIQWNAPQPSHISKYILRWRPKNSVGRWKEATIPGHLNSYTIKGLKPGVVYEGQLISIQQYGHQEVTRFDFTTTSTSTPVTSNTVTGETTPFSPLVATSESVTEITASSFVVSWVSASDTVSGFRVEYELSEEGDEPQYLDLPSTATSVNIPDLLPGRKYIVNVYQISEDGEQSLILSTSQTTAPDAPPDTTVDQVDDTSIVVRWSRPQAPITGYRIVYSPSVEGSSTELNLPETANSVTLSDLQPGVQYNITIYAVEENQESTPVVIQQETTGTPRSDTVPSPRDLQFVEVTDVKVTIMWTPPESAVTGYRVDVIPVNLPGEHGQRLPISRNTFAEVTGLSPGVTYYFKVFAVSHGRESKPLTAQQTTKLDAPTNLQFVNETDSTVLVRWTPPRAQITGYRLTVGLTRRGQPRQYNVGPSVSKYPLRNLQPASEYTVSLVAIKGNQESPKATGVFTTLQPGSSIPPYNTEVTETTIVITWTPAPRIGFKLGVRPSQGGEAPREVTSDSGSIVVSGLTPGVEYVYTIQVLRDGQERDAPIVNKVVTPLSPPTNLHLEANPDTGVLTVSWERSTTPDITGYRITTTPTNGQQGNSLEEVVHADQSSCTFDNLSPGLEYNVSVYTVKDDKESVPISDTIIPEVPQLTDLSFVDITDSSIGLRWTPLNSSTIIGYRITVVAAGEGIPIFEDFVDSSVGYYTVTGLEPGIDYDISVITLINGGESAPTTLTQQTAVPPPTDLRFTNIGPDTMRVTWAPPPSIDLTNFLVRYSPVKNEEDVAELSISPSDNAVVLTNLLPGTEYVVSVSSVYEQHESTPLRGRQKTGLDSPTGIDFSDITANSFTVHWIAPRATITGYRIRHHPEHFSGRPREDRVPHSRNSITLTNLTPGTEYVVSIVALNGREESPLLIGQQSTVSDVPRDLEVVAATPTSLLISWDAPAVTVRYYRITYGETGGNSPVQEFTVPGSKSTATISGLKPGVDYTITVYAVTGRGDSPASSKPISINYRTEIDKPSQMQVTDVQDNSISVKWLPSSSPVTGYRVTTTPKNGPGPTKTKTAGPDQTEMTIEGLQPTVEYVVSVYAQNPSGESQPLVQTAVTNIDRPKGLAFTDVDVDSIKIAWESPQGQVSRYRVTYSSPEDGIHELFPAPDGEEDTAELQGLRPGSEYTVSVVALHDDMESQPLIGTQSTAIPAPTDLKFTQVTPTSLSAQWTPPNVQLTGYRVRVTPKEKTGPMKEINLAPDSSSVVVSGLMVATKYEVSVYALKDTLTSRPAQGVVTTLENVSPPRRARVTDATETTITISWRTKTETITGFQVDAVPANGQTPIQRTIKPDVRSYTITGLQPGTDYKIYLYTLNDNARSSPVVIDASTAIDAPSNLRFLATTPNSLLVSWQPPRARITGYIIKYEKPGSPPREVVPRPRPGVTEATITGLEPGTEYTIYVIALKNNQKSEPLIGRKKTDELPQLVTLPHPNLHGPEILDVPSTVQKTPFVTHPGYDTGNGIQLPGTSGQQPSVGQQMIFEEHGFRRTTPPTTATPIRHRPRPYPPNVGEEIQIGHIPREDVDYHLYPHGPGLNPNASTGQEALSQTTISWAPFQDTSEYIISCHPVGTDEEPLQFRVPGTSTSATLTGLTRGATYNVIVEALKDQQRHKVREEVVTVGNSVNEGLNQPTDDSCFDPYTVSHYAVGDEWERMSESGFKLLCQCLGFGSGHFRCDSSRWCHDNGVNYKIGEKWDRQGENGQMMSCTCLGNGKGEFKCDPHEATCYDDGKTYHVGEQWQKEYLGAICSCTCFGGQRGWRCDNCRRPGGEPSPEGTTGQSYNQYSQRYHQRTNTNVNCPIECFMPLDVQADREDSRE

No constants are given. Whether binding was seen depends on the method and setting. For some assays here: Binding seen in cells or lysates may run through a third protein. Some binding calls cover weakened binding; strength is not graded here. For some assays here: Sequences can lack the tags named with a protein.

Test [1] has as its target fibronectin, endogenous (human (endogenous in human lung fibroblasts)) (UniProt P02751). In words: co-IP; endogenous proteins in HLFs, untreated or treated with 2 µM FK506; IP with anti-FKBP3 antibody (control: anti-fibronectin antibody or no antibody), Western blot with anti-LARP6 antibody.
Test [2] deals with T1, FK506 binding protein 3 (FKBP3), endogenous (human (endogenous in HEK293 and human lung fibroblasts)) (UniProt Q00688).
T1 sequence: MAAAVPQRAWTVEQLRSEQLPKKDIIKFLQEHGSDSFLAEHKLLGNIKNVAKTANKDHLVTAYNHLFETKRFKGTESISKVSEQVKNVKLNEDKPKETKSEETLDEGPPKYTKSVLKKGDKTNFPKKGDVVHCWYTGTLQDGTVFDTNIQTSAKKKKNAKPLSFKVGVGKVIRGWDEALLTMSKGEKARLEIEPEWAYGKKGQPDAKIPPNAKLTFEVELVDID
The description is as above.

Test [3] addresses T1, FK506 binding protein 3 (FKBP3), endogenous (human (endogenous in HEK293 and human lung fibroblasts)). In words: co-IP; FKBP3/LARP6 pull downs repeated in scleroderma skin fibroblasts; data not shown.
For test [4], the target named is T2, HA-tagged full size LARP6 (La ribonucleoprotein domain family member 6) (UniProt Q9BRS8).
T2 sequence: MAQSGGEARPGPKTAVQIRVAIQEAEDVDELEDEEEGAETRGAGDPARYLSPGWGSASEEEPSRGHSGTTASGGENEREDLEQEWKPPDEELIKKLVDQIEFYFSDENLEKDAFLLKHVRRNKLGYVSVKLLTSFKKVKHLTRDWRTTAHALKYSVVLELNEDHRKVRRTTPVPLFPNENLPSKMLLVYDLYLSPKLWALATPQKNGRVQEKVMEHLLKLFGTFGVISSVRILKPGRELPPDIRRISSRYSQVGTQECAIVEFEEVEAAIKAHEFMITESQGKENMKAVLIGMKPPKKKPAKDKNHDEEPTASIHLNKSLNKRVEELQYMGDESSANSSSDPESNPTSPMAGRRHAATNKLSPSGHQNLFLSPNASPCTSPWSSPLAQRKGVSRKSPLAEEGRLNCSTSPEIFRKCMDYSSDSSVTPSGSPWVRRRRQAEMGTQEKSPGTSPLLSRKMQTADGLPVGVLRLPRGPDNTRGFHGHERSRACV
In words: co-IP; HA-tagged LARP6 constructs expressed in HEK293 cells; IP with anti-HA antibody, Western blot with anti-FKBP3 antibody; lysis in isotonic buffer, protein A/G beads, washes with PBS with 0.5% NP-40. (A western blot detects proteins with antibodies after separation by electrophoresis.)

For test [5], the target named is T3, LARP6, yeast two-hybrid fusion (UniProt Q9BRS8).
T3 sequence: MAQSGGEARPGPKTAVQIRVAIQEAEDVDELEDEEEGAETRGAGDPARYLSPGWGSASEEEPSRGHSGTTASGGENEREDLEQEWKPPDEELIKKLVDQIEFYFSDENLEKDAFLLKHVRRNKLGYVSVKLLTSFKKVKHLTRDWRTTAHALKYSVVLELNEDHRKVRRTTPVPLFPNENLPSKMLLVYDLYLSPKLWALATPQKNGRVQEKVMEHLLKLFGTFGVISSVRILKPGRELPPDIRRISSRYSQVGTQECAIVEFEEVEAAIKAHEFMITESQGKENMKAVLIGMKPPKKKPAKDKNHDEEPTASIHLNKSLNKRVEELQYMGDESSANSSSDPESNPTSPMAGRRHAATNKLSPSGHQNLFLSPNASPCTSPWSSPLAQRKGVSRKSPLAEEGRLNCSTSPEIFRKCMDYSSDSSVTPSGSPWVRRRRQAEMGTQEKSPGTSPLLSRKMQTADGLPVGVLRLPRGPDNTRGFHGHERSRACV
In words: two-hybrid; yeast two-hybrid screening with LARP6; details in preparation.

B1: La ribonucleoprotein domain family member 6 (LARP6), endogenous (protein, UniProt Q9BRS8 1-491)
chain: MAQSGGEARPGPKTAVQIRVAIQEAEDVDELEDEEEGAETRGAGDPARYLSPGWGSASEEEPSRGHSGTTASGGENEREDLEQEWKPPDEELIKKLVDQIEFYFSDENLEKDAFLLKHVRRNKLGYVSVKLLTSFKKVKHLTRDWRTTAHALKYSVVLELNEDHRKVRRTTPVPLFPNENLPSKMLLVYDLYLSPKLWALATPQKNGRVQEKVMEHLLKLFGTFGVISSVRILKPGRELPPDIRRISSRYSQVGTQECAIVEFEEVEAAIKAHEFMITESQGKENMKAVLIGMKPPKKKPAKDKNHDEEPTASIHLNKSLNKRVEELQYMGDESSANSSSDPESNPTSPMAGRRHAATNKLSPSGHQNLFLSPNASPCTSPWSSPLAQRKGVSRKSPLAEEGRLNCSTSPEIFRKCMDYSSDSSVTPSGSPWVRRRRQAEMGTQEKSPGTSPLLSRKMQTADGLPVGVLRLPRGPDNTRGFHGHERSRACV
As for B1, the binding entry in test [1] was “no binding”; in test [2], “binds”; in test [3], “binds”.

B2: FK506 binding protein 3 (FKBP3), endogenous (protein, UniProt Q00688 1-224)
chain: MAAAVPQRAWTVEQLRSEQLPKKDIIKFLQEHGSDSFLAEHKLLGNIKNVAKTANKDHLVTAYNHLFETKRFKGTESISKVSEQVKNVKLNEDKPKETKSEETLDEGPPKYTKSVLKKGDKTNFPKKGDVVHCWYTGTLQDGTVFDTNIQTSAKKKKNAKPLSFKVGVGKVIRGWDEALLTMSKGEKARLEIEPEWAYGKKGQPDAKIPPNAKLTFEVELVDID
For B2, the binding result in test [4] was “binds”.

B3: FKBP3, yeast two-hybrid clone (protein, UniProt Q00688 1-224)
chain: MAAAVPQRAWTVEQLRSEQLPKKDIIKFLQEHGSDSFLAEHKLLGNIKNVAKTANKDHLVTAYNHLFETKRFKGTESISKVSEQVKNVKLNEDKPKETKSEETLDEGPPKYTKSVLKKGDKTNFPKKGDVVHCWYTGTLQDGTVFDTNIQTSAKKKKNAKPLSFKVGVGKVIRGWDEALLTMSKGEKARLEIEPEWAYGKKGQPDAKIPPNAKLTFEVELVDID
Take B3: the binding entry in test [5] is on record as “binds”.
